Measurements reported in PubChem BioAssay AID1259308 (NCATS, 2017).

Purpose: 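Genes whose loss raises luciferase production in HEK293 cells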 (primary screen)
Cell system: human HEK293 embryonic kidney cells stably expressing firefly luciferase (HEK-CMV-Luc2-Hygro)
Knock-down reagent: single siRNA against human genes, 0.8 pmol siRNA per well
Time to read-out: 72 h
Detection: 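Luciferase light (ONE-Glo) measured on one replicate plate set and viability (CellTiter-Glo) on the other, scaled to a negative control siRNA, with robust z-scores and luciferase per cell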
Scale: total luciferase, z-score and total luciferase, % of control: higher = more reporter protein produced
Rule for the call: 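An siRNA counts as active if its total luciferase robust z-score exceeds 3; genes with two or more such siRNAs out of three were retested with fresh siRNAs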
Calls: active = raised luciferase; inactive = no rise
The whole screen tested about 59,000 reagents; below is a random part of them. In the full data, about 1,510 (2.6%) were called active. 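Calls use total luciferase alone and ignore viability, so some active siRNAs may act by altering cell number.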 Entries without a mark were called inactive. Reagents against one gene are numbered here. Not all columns of the deposit are shown.

gene knocked down | reagent no. | total luciferase, z-score | total luciferase, % of control
P4HTM | 1 | -0.0197 | 81.5
P4HTM | 2 | -1.16 | 58.8
P4HTM | 3 | -0.113 | 79.6
CABCOCO1 | 1 | 0.949 | 101
CABCOCO1 | 2 | 1.28 | 107
CABCOCO1 | 3 | 0.244 | 86.7
UBTF | 1 | -1.3 | 56
UBTF | 2 | -2.59 | 30.4
UBTF | 3 | -0.816 | 65.7
CA5A | 1 | -1.24 | 57.3
CA5A | 2 | -1.91 | 44
CA5A | 3 | -0.684 | 68.3
PPP4C | 1 | 1.95 | 121
PPP4C | 2 | 0.884 | 99.5
PPP4C | 3 | -0.749 | 67
ARHGEF25 | 1 | -0.669 | 68.6
ARHGEF25 | 2 | -1.62 | 49.6
ARHGEF25 | 3 | 0.822 | 98.2
B3GALT4 | 1 | 0.127 | 84.4
B3GALT4 | 2 | 0.231 | 86.5
B3GALT4 | 3 | 0.443 | 90.7
SLC16A2 | 1 | 0.149 | 84.8
SLC16A2 | 2 | -1.2 | 58.1
SLC16A2 | 3 | 0.178 | 85.4
GIMAP5 | 1 | 0.794 | 97.7
GIMAP5 | 2 | 0.306 | 88
GIMAP5 | 3 | -1.59 | 50.3
GRIA2 | 1 | -0.788 | 66.2
GRIA2 | 2 | 0.307 | 88
GRIA2 | 3 | -2.13 | 39.6
LOC644893 | 1 | -1.2 | 58
LOC644893 | 2 | 1.8 | 118
LOC644893 | 3 | 0.343 | 88.7
HK1 | 1 | 0.363 | 89.1
HK1 | 2 | -0.0276 | 81.3
HK1 | 3 | 1.84 | 118
KIF14 | 1 | 1.92 | 120
KIF14 | 2 | -1.73 | 47.5
KIF14 | 3 | 0.117 | 84.2
CCL26 | 1 | 1.36 | 109
CCL26 | 2 | -0.0151 | 81.6
CCL26 | 3 | -0.75 | 67
MTCL2 | 1 | 0.392 | 89.7
MTCL2 | 2 | -0.986 | 62.3
MTCL2 | 3 | 0.294 | 87.7
RPLP1P3 | 1 | 1.22 | 106
RPLP1P3 | 2 | -0.444 | 73.1
RPLP1P3 | 3 | -1.09 | 60.2
OR10P1 | 1 | 4.64 (active) | 174
OR10P1 | 2 | -0.354 | 74.9
OR10P1 | 3 | 4.13 (active) | 164
ITGAM | 1 | -1.23 | 57.5
ITGAM | 2 | -2.71 | 27.9
ITGAM | 3 | 0.204 | 85.9
NDUFB6 | 1 | -1.83 | 45.6
NDUFB6 | 2 | 0.52 | 92.2
NDUFB6 | 3 | -0.6 | 69.9

Already shown: an excerpt of the list.
gene knocked down | reagent no. | total luciferase, z-score | total luciferase, % of control
OR10P1 | 3 | 4.13 (active) | 164
ITGAM | 1 | -1.23 | 57.5
ITGAM | 2 | -2.71 | 27.9
